{
  "source": "patent US8951988B2",
  "about": "“Azidothymidine quinoline conjugated compound, preparation method therefor and application thereof in anti-hepatoma therapy” (Huazhong University of Science and Technology, priority 2012, dated 2015)",
  "tested_on": "human liver carcinoma cells with hepatitis B Hep3B",
  "experiment": "MTT cell viability assay, Hep3B",
  "assay_type": "cell-based",
  "details": "after adding methotrexate, an inhibitor of the thymidine kinase synthesis pathway",
  "protocol": "Cell culture: cancer cell lines HepG2 and Hep3B are obtained from ATCC (VA, USA), Human liver cells HL-7702 and murine liver cancer cells H22 are obtained from Shanghai Institute of Life Science Cell Culture Center (Shanghai, China). All the cells are maintained in high glucose DMEM or RPMI-1640 medium (Invitrogen, GA, USA) supplemented with 10% heat-inactivated fetal bovine serum (FBS), 25 mM HEPES, 2 mM L-glutamine, 0.1 mM nonessential amino acids, 1.0 mM sodium pyruvate, 50 U/mL penicillin, and 50 ug/ml streptomycin at 37° C. and 5% CO2.\nMethods of cell viability assay: liver cells are seeded on 96-well plates, AZT-QX, Zidovudine, quinoline piperazine derivatives and doxorubicin are added in respectively, the concentration thereof are from 1 nM to […]. After 72 hours, an MTT assay is carried out to determine the cell viability [See method in: Zhou, et al. Chem. Res. Toxicol. 2008, 21, 732-738.].\nSelective biological activity of AZT-QX is assessed using cell viability assays MTT on human liver carcinoma cells with hepatitis B Hep3B, hepatoblastoma cell line HepG2 and normal human liver cells HL-7702 (FIG. 3).\nFIG. 3 illustrates determined cell viability of Hep3B hepatoma cells with hepatitis B, a HepG2 hepatoblastoma cell line and HL-7702 normal […] treated with AZT-QX (FIG. 3a), doxorubicin (FIG. 3b), Pip-QX (FIG. 3c), and Zidovudine (FIG. 3d).",
  "note": "The name of at least one read-out is uncertain.",
  "data": [
    {"smiles": "Cc1cn([C@H]2C[C@H](n3cc(CNC(=O)CCCCCOc4ccc5c(c4)-c4nc6ccccc6nc4[C@@H]4C(C)(C)CCC[C@]54C)nn3)[C@@H](CO)O2)c(=O)[nH]c1=O", "note": "[AZT-QX, N-((1-(2-(hydroxymethyl)-5-(5-methyl-2,4-dioxo-3,4-dihydro-pyrimidin-1(2H)-yl)-tetrahydrofuran-3-yl)-1H-1,2,3-triazol-4-yl)methyl)-6-(4b,8,8-trimethyl-4-b,5,6,7,8,8a-hexahydrodibenzo[a,c]phenazin-2-yloxy)hexanamide]", "values": [
      {"measurement": "effect of added methotrexate on the IC50 concentration for killing Hep3B cells", "value": "no effect on the IC50 concentration"}
    ]}
  ]
}
